± gives the standard deviation of the averaged measurements. Only a part is listed here, and it is no random draw. Most values lie at the level of the controls, where differences are scatter.
Compound: Nc1ncnc2c1ncn2[C@@H]1O[C@H](COP(=O)(O)OP(=O)(O)OP(=O)(O)O)[C@@H](O)[C@H]1O [adenosine triphosphate]
Assay: NP40-soluble protein abundance relative to vehicle (solubility fold change) (ratio); higher = more soluble protein in presence of ATP
Summary of the method: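 Data come from three independent experiments in which Dounce-homogenised Jurkat crude lysate was treated at eight concentrations from 0.1 to 10 mM. Treatment ran 10 min at room temperature and then 3 min at 37 °C, after which 0.8% NP40 and benzonase were added for 60 min at 4 °C before ultracentrifugation. The supernatant underwent TMT labelling and LC-MS/MS, and vsn-normalised intensities were expressed as fold change against the detergent-processed vehicle in each replicate.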

Sequences of proteins named here, by UniProt entry; tags and fusion partners are left off. A change or cut given only in a name is not applied to a line headed by its entry.
UniProt O60671: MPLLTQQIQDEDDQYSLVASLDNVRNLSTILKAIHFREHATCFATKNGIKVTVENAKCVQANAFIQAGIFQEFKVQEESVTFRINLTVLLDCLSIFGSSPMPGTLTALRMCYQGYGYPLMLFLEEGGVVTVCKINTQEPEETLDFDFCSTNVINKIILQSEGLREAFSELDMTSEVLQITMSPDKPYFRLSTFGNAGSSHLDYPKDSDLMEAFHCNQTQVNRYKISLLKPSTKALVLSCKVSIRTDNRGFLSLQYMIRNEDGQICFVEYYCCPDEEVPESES
UniProt O94992, whole entry: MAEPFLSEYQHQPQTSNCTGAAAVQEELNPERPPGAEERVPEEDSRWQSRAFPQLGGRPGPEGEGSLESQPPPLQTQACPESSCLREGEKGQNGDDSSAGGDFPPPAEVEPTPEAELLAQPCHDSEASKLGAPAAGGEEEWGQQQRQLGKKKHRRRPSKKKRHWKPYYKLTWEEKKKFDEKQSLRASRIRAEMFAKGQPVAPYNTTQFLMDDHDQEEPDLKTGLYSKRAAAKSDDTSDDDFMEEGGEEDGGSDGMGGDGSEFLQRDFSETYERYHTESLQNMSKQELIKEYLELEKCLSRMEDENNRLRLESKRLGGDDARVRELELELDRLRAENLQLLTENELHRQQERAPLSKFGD
UniProt O95777: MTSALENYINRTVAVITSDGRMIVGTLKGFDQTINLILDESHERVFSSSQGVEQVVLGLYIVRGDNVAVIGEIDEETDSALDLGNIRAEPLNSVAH
UniProt O75369, whole entry: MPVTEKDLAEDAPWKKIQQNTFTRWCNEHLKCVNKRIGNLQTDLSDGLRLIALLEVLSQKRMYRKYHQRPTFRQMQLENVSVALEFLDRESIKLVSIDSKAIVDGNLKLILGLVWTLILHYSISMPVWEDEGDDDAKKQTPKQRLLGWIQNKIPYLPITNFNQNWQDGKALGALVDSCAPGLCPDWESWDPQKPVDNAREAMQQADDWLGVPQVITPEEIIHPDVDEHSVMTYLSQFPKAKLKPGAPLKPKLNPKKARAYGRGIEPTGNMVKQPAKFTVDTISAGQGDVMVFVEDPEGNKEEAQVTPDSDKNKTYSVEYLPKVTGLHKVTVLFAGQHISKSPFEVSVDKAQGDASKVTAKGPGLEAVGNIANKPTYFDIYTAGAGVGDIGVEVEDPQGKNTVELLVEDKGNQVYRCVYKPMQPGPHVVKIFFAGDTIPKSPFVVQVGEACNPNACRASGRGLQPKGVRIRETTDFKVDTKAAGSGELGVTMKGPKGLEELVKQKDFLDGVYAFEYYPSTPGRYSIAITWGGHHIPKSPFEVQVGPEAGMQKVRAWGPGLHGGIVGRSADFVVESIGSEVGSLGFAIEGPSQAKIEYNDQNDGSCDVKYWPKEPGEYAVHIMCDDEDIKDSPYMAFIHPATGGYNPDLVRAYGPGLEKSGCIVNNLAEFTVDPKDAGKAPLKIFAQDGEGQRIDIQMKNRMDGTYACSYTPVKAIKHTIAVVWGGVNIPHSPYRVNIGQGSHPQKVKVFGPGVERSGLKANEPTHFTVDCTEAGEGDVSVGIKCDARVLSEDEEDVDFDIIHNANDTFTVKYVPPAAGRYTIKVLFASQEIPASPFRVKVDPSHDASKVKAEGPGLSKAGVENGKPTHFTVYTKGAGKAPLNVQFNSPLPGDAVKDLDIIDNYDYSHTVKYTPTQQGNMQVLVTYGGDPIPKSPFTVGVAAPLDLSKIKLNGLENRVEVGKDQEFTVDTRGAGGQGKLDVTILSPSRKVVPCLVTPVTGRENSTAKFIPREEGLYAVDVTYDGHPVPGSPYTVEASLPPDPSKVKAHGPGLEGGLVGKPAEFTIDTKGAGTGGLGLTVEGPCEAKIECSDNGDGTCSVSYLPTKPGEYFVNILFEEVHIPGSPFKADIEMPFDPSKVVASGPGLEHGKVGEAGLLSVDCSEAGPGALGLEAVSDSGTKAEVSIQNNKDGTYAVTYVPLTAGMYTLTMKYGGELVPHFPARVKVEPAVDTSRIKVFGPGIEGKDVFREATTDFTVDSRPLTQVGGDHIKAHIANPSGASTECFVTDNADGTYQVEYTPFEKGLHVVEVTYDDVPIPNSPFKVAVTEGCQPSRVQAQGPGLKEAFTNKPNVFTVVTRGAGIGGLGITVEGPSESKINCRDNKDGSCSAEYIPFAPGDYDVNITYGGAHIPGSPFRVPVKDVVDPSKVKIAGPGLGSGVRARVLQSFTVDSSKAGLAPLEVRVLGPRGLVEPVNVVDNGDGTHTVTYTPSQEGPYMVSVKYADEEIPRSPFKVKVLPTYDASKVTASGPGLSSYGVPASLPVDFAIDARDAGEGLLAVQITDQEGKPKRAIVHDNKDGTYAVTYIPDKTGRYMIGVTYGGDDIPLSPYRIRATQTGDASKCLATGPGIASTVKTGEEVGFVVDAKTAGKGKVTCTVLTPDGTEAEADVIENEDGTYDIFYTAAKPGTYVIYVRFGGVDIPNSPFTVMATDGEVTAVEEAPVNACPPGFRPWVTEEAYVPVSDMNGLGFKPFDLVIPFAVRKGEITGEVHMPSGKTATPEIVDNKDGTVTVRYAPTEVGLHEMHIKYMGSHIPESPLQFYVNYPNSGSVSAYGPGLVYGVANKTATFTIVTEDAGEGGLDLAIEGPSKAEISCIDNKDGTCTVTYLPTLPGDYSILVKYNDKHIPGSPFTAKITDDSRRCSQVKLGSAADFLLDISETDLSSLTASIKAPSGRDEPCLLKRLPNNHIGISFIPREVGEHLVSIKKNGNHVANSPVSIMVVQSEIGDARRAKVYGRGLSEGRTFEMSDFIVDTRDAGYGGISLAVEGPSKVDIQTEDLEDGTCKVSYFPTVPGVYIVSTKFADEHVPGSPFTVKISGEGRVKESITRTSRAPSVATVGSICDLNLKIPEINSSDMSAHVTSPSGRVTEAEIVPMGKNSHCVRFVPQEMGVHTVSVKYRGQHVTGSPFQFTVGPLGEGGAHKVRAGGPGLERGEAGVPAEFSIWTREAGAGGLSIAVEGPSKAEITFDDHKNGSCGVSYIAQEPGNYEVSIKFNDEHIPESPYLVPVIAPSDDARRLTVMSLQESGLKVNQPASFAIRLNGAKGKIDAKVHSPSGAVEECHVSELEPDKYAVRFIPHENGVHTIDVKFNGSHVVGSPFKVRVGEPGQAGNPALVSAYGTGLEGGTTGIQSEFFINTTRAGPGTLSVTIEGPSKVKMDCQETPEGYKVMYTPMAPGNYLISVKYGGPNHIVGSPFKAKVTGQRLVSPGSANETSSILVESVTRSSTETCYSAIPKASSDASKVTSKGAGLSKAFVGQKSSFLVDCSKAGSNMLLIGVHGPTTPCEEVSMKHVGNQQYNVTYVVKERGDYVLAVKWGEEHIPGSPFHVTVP
UniProt O75648: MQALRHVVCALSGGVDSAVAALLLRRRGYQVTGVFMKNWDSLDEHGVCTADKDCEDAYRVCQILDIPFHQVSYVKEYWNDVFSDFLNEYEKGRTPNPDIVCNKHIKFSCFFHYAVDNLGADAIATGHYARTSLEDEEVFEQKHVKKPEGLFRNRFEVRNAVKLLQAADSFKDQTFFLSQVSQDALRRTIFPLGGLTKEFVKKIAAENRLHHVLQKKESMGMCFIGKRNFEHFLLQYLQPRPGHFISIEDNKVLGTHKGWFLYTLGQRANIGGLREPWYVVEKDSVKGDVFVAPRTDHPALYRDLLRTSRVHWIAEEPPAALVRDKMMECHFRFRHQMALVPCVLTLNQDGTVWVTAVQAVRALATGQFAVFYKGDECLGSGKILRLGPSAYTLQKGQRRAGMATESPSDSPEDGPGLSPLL
UniProt O95400: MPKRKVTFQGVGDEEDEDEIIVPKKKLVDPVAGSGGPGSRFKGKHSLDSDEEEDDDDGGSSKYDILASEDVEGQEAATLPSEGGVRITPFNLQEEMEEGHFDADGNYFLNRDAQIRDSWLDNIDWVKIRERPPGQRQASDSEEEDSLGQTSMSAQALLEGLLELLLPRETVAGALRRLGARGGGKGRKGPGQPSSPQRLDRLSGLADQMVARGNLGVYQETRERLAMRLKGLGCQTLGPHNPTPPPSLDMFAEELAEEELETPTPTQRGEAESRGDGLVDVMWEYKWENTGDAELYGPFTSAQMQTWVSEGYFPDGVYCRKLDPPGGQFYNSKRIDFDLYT
UniProt O75822, whole entry: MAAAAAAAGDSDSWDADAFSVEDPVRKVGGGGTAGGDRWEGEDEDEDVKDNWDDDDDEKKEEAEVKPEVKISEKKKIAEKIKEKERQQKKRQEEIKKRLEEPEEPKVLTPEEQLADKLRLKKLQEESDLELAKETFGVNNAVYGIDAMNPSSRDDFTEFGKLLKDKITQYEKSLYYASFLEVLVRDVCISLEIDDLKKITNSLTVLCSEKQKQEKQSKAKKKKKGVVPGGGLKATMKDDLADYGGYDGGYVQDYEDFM
UniProt O75694: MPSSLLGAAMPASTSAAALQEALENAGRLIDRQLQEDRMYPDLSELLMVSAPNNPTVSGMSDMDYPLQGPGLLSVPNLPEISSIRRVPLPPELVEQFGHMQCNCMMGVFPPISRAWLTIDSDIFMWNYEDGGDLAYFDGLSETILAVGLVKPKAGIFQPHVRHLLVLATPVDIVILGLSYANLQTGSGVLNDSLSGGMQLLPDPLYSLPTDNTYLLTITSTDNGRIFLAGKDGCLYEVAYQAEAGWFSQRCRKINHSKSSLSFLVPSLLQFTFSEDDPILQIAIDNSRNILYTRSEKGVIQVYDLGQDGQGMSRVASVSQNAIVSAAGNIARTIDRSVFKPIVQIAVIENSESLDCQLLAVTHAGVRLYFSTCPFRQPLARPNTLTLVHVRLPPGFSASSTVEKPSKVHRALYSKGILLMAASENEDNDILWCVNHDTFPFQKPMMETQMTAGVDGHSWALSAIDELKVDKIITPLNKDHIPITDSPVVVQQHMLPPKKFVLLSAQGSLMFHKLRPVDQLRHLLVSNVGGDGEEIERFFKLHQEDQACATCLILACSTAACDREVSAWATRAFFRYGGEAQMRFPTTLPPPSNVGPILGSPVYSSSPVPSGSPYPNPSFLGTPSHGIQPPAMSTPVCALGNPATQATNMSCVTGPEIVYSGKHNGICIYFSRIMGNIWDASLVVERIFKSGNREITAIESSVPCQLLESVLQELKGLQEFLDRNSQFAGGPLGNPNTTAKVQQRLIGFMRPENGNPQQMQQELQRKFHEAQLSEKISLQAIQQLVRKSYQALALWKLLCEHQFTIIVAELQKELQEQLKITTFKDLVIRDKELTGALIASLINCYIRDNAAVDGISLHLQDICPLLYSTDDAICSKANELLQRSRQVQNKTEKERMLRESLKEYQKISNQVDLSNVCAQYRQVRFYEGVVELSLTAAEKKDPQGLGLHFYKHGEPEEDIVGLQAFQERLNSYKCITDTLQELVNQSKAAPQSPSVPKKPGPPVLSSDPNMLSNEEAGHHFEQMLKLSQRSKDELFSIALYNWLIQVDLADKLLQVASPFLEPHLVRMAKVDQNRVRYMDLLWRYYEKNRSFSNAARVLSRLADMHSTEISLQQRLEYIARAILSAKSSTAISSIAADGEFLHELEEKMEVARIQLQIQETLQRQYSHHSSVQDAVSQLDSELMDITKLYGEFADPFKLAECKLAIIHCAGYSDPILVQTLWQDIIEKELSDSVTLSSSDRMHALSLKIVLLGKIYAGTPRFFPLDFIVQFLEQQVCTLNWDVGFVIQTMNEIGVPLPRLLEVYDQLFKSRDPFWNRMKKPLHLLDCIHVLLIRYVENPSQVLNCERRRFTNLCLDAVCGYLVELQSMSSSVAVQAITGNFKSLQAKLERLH
UniProt O60504: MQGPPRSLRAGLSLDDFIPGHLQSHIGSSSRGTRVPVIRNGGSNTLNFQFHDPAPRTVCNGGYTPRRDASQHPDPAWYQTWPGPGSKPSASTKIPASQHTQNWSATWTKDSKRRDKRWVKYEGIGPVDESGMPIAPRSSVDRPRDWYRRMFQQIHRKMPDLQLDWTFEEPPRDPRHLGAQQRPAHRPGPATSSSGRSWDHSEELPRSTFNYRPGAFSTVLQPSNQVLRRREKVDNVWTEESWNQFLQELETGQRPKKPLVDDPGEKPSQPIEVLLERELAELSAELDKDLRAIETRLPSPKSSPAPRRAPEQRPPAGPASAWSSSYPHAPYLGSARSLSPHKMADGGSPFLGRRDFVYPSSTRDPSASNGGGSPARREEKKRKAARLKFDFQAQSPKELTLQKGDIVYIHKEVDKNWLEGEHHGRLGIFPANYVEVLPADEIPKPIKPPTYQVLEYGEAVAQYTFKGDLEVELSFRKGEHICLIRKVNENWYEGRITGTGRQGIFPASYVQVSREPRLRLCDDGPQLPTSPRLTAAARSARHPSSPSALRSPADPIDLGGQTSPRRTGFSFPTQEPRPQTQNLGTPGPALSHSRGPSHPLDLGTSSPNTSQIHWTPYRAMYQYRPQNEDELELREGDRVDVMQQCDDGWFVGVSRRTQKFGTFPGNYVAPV
UniProt O60888: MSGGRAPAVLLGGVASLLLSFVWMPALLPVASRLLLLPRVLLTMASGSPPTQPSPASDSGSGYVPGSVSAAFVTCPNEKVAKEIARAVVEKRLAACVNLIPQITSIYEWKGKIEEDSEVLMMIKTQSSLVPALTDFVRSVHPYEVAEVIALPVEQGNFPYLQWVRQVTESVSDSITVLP

Target	NP40-soluble protein abundance (concentration: 0.1mM)	NP40-soluble protein abundance (concentration: 0.5mM)
NDUFS6 (UniProt O75380)	0.94 ± 0.044	0.933 ± 0.025
SNX3 (UniProt O60493)	0.965 ± 0.082	0.944 ± 0.098
PPP1R11 (UniProt O60927)	1 ± 0.06	1.01 ± 0.079
UniProt O95273 and related entries	0.923 ± 0.095	0.91 ± 0.078
PRKRA (UniProt O75569)	0.971 ± 0.022	0.972 ± 0.052
HERC2 (UniProt O95714)	0.976 ± 0.036	1.04 ± 0.066
UniProt O75879 and related entries	0.994 ± 0.024	0.997 ± 0.046
TMCC1 (UniProt O94876)	1.02 ± 0.048	1.01 ± 0.037
UniProt O60762 and related entries	1.09 ± 0.027	1.18 ± 0.072
TIPRL (UniProt O75663)	1.08 ± 0.052	1.04 ± 0.082
UniProt O60671 and related entries	1.05 ± 0.14	1.08 ± 0.11
DOK2 (UniProt O60496)	1.02 ± 0.02	1.01 ± 0.028
CCDC22 (UniProt O60826)	1 ± 0.028	0.977 ± 0.024
UniProt O60879-2|O60879-3|C9J6U3 and related entries	1.02 ± 0.043	1.01 ± 0.048
HEXIM1 (UniProt O94992)	0.976 ± 0.045	0.972 ± 0.036
UniProt O60664	0.917 ± 0.033	0.904 ± 0.066
UniProt O75175 and related entries	0.981 ± 0.033	1.12 ± 0.058
MFN2 (UniProt O95140)	1.08 ± 0.034	1.04 ± 0.021
UniProt O95782 and related entries	1.03 ± 0.037	1.06 ± 0.031
MOCS3 (UniProt O95396)	1.03 ± 0.047	1 ± 0.065

Target	NP40-soluble protein abundance (concentration: 0.1mM)	NP40-soluble protein abundance (concentration: 0.5mM)
UniProt O95777	1.04 ± 0.045	1 ± 0.13
UniProt O75369-8|O75369-9|O75369 and related entries	0.997 ± 0.032	1.02 ± 0.068
DNAJA2 (UniProt O60884)	0.998 ± 0.043	1.01 ± 0.068
SASH3 (UniProt O75995)	0.993 ± 0.043	0.808 ± 0.11
UniProt O95628 and related entries	1 ± 0.028	0.984 ± 0.014
LETM1 (UniProt O95202)	0.945 ± 0.013	0.9816 ± 0.0098
ERLIN1 (UniProt O75477)	0.978 ± 0.03	1.04 ± 0.081
UniProt O75554 and related entries	0.998 ± 0.021	1.16 ± 0.089
UniProt O60830 and related entries	0.92 ± 0.036	0.906 ± 0.02
UniProt O75648 and related entries	1 ± 0.18	1.05 ± 0.16
ATG7 (UniProt O95352)	1.03 ± 0.017	0.977 ± 0.019
SF3B1 (UniProt O75533)	1.05 ± 0.033	1.13 ± 0.043
ZFPL1 (UniProt O95159)	0.999 ± 0.1	0.964 ± 0.044
UniProt O94855 and related entries	1.01 ± 0.089	1 ± 0.032
UniProt O60733 and related entries	0.902 ± 0.01	0.942 ± 0.048
CD2BP2 (UniProt O95400)	0.931 ± 0.073	0.938 ± 0.05
UniProt O94986 and related entries	0.9994 ± 0.004	0.921 ± 0.1
UniProt O75822 and related entries	0.903 ± 0.054	0.781 ± 0.068
UniProt O75143 and related entries	0.991 ± 0.036	1.04 ± 0.021
GGCT (UniProt O75223)	0.9349 ± 0.0049	0.9763 ± 0.0038

Quoted at random: two records from the list.
Target	NP40-soluble protein abundance (concentration: 0.1mM)	NP40-soluble protein abundance (concentration: 0.5mM)
SF3B1 (UniProt O75533)	1.05 ± 0.033	1.13 ± 0.043
UniProt O75648 and related entries	1 ± 0.18	1.05 ± 0.16

(listing goes on)

Target	NP40-soluble protein abundance (concentration: 0.1mM)	NP40-soluble protein abundance (concentration: 0.5mM)
UniProt O95684-2	0.912 ± 0.053	0.915 ± 0.061
NUP155 (UniProt O75694)	1.09 ± 0.089	1.05 ± 0.069
SNUPN (UniProt O95149)	1.02 ± 0.025	1.03 ± 0.063
UniProt O95749 and related entries	1.01 ± 0.025	0.974 ± 0.039
SLC25A12 (UniProt O75746)	1 ± 0.021	0.997 ± 0.026
UniProt O75787 and related entries	0.992 ± 0.055	0.979 ± 0.055
ROCK2 (UniProt O75116)	0.9874 ± 0.0087	1.01 ± 0.045
UniProt O75145 and related entries	1 ± 0.039	0.996 ± 0.052
MED26 (UniProt O95402)	1.02 ± 0.087	1.11 ± 0.056
SH3BGRL (UniProt O75368)	0.9505 ± 0.0039	0.959 ± 0.04
KBTBD11 (UniProt O94819)	1.01 ± 0.033	0.98 ± 0.04
UniProt O94842 and related entries	0.936 ± 0.034	0.918 ± 0.068
UniProt O95793 and related entries	0.983 ± 0.043	0.991 ± 0.029
UniProt O94967 and related entries	0.976 ± 0.076	1.03 ± 0.011
MTRF1 (UniProt O75570)	1.06 ± 0.063	1.08 ± 0.091
UniProt O75525 and related entries	1.04 ± 0.019	1.03 ± 0.016
UniProt O60443 and related entries	0.97 ± 0.12	0.958 ± 0.052
UniProt O60504 and related entries	1.02 ± 0.013	1.01 ± 0.024
UGDH (UniProt O60701)	1.02 ± 0.026	1.03 ± 0.06
UniProt O60888 and related entries	0.85 ± 0.092	0.888 ± 0.16

Source: the supplement of paper PMC6411743
